Data source: PubChem BioAssay AID1259308 (NCATS, 2017)
The whole screen tested about 59,000 reagents; below is an unselected part. Of all reagents, about 1,510 (2.6%) are marked active. 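Calls use total luciferase alone and ignore viability, so some active siRNAs may act by altering cell number.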 Entries without a mark were called inactive. The numbers tell different reagents against one gene apart.

Purpose: 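Genes whose loss raises luciferase production in HEK293 cells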 (primary screen)
Cells: human HEK293 embryonic kidney cells stably expressing firefly luciferase (HEK-CMV-Luc2-Hygro)
Knock-down reagent: single siRNA against human genes, 0.8 pmol siRNA per well
Timing: 72 h
Detection: 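Luciferase light (ONE-Glo) measured on one replicate plate set and viability (CellTiter-Glo) on the other, scaled to a negative control siRNA, with robust z-scores and luciferase per cell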
Reading the numbers: total luciferase, z-score and total luciferase, % of control: higher = more reporter protein produced; luciferase per cell, z-score: higher = more reporter output per viable cell; viable cells, % of control: higher = more viable cells
Call rule: 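An siRNA counts as active if its total luciferase robust z-score exceeds 3; genes with two or more such siRNAs out of three were retested with fresh siRNAs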
Meaning of the calls: active = raised luciferase; inactive = no rise

The first 4 entries, ahead of the listing:
| gene | siRNA no. | total luciferase, z-score | total luciferase, % of control | luciferase per cell, z-score | viable cells, % of control |
| --- | --- | --- | --- | --- | --- |
| RAB3D (RAB3D, member RAS oncogene family) | 1 | -0.72 | 67.6 | 0.487 | 66.4 |
| RAB3D (RAB3D, member RAS oncogene family) | 2 | 0.142 | 84.7 | 0.533 | 82.2 |
| RAB3D (RAB3D, member RAS oncogene family) | 3 | 0.073 | 83.3 | 0.536 | 80.9 |
| PRAMEF12 (PRAME family member 12) | 1 | 0.0891 | 83.7 | 0.199 | 88.7 |

Main list, from the start:
| gene | siRNA no. | total luciferase, z-score | total luciferase, % of control | luciferase per cell, z-score | viable cells, % of control |
| --- | --- | --- | --- | --- | --- |
| RAB3D (RAB3D, member RAS oncogene family) | 1 | -0.72 | 67.6 | 0.487 | 66.4 |
| RAB3D (RAB3D, member RAS oncogene family) | 2 | 0.142 | 84.7 | 0.533 | 82.2 |
| RAB3D (RAB3D, member RAS oncogene family) | 3 | 0.073 | 83.3 | 0.536 | 80.9 |
| PRAMEF12 (PRAME family member 12) | 1 | 0.0891 | 83.7 | 0.199 | 88.7 |
| PRAMEF12 (PRAME family member 12) | 2 | 0.0394 | 82.7 | -0.0743 | 94.2 |
| PRAMEF12 (PRAME family member 12) | 3 | 0.645 | 94.7 | 0.518 | 92.4 |
| KLF8 (KLF transcription factor 8) | 1 | -1.52 | 51.6 | -1.89 | 94.8 |
| KLF8 (KLF transcription factor 8) | 2 | 0.318 | 88.2 | 0.163 | 94.4 |
| KLF8 (KLF transcription factor 8) | 3 | -0.217 | 77.6 | 0.308 | 79.9 |
| ELAPOR2 | 1 | 1.65 | 115 | 0.676 | 107 |
| ELAPOR2 | 2 | -2.9 | 24.2 | -5.14 | 104 |
| ELAPOR2 | 3 | -0.336 | 75.2 | -0.31 | 91.2 |
| HAS1 (hyaluronan synthase 1) | 1 | 2.4 | 130 | 2.72 | 70.7 |
| HAS1 (hyaluronan synthase 1) | 2 | -0.144 | 79 | -0.0711 | 90 |
| HAS1 (hyaluronan synthase 1) | 3 | 0.133 | 84.5 | 1.07 | 71.3 |
| ADCY5 (adenylate cyclase 5) | 1 | 1.13 | 104 | 1.42 | 80.1 |
| ADCY5 (adenylate cyclase 5) | 2 | -0.119 | 79.5 | -0.578 | 103 |
| ADCY5 (adenylate cyclase 5) | 3 | 2.5 | 132 | 1.33 | 103 |
| RBM47 (RNA binding motif protein 47) | 1 | 0.76 | 97 | 0.0691 | 106 |
| RBM47 (RNA binding motif protein 47) | 2 | 1.65 | 115 | 1.09 | 96.4 |
| RBM47 (RNA binding motif protein 47) | 3 | 0.706 | 95.9 | -0.282 | 115 |
| MYO7B (myosin VIIB) | 1 | -0.984 | 62.3 | -0.557 | 80.6 |
| MYO7B (myosin VIIB) | 2 | 0.235 | 86.6 | 0.43 | 86.4 |
| MYO7B (myosin VIIB) | 3 | -0.24 | 77.1 | 0.267 | 80.3 |
| CASQ2 (calsequestrin 2) | 1 | 0.626 | 94.3 | 0.529 | 91.7 |
| CASQ2 (calsequestrin 2) | 2 | -0.0317 | 81.3 | -0.525 | 104 |
| CASQ2 (calsequestrin 2) | 3 | -0.512 | 71.7 | -0.253 | 85.6 |
| DGCR6 (DiGeorge syndrome critical region gene 6) | 1 | 0.423 | 90.3 | 0.245 | 94.6 |
| DGCR6 (DiGeorge syndrome critical region gene 6) | 2 | 0.736 | 96.5 | 2.2 | 60.4 |
| DGCR6 (DiGeorge syndrome critical region gene 6) | 3 | -0.488 | 72.2 | 0.0154 | 80.3 |
| ZNF582 (zinc finger protein 582) | 1 | -1.04 | 61.2 | -1.58 | 104 |
| ZNF582 (zinc finger protein 582) | 2 | 1.66 | 115 | 1.36 | 89.7 |
| ZNF582 (zinc finger protein 582) | 3 | -1.1 | 60 | -1.35 | 95.7 |
| CROCC (ciliary rootlet coiled-coil, rootletin) | 1 | 0.135 | 84.6 | -0.119 | 97.5 |
| CROCC (ciliary rootlet coiled-coil, rootletin) | 2 | 0.121 | 84.3 | 0.648 | 79.4 |
| CROCC (ciliary rootlet coiled-coil, rootletin) | 3 | 0.656 | 94.9 | 0.0177 | 106 |
| GYPC (glycophorin C (Gerbich blood group)) | 1 | 0.158 | 85 | 0.611 | 80.9 |
| GYPC (glycophorin C (Gerbich blood group)) | 2 | -0.919 | 63.6 | -0.712 | 85.7 |
| GYPC (glycophorin C (Gerbich blood group)) | 3 | -0.00582 | 81.8 | -0.512 | 105 |
| TMEM135 (transmembrane protein 135) | 1 | 0.178 | 85.4 | 0.0346 | 94.6 |
| TMEM135 (transmembrane protein 135) | 2 | 1.03 | 102 | 0.526 | 99.7 |
| TMEM135 (transmembrane protein 135) | 3 | 0.251 | 86.9 | -0.303 | 105 |
| PAK4 (p21 (RAC1) activated kinase 4) | 1 | -0.906 | 63.9 | -0.292 | 77.1 |
| PAK4 (p21 (RAC1) activated kinase 4) | 2 | -0.852 | 64.9 | -0.879 | 91.5 |
| PAK4 (p21 (RAC1) activated kinase 4) | 3 | 0.924 | 100 | 2.3 | 61.2 |
| DAGLB (diacylglycerol lipase beta) | 1 | 0.247 | 86.8 | 0.0974 | 94.5 |
| DAGLB (diacylglycerol lipase beta) | 2 | -1.36 | 54.9 | -1.52 | 91.6 |
| DAGLB (diacylglycerol lipase beta) | 3 | -2.62 | 29.8 | -1.02 | 43.6 |
| VANGL2 (VANGL planar cell polarity protein 2) | 1 | 0.131 | 84.5 | -0.723 | 114 |
| VANGL2 (VANGL planar cell polarity protein 2) | 2 | -1.42 | 53.6 | -1.34 | 85.1 |
| VANGL2 (VANGL planar cell polarity protein 2) | 3 | 0.00857 | 82.1 | -0.16 | 95.6 |
| QPCTL (glutaminyl-peptide cyclotransferase like) | 1 | 0.878 | 99.4 | -0.0934 | 114 |
| QPCTL (glutaminyl-peptide cyclotransferase like) | 2 | -1.2 | 57.9 | -1.42 | 94 |
| QPCTL (glutaminyl-peptide cyclotransferase like) | 3 | -0.123 | 79.4 | -0.532 | 102 |
| UBR1 (ubiquitin protein ligase E3 component n-recognin 1) | 1 | -0.853 | 64.9 | 0.254 | 67.8 |
| UBR1 (ubiquitin protein ligase E3 component n-recognin 1) | 2 | -0.0955 | 80 | -0.272 | 96 |
| UBR1 (ubiquitin protein ligase E3 component n-recognin 1) | 3 | -0.776 | 66.5 | 0.916 | 58.3 |
